Where two headings read alike, the source gives them in different places.
Assays:
mice [1] = assay: Maximal electroshock seizure (MES) test; type: in vivo, mouse; details: mice i.p.
mice [2] = assay: Psychomotor 6 Hz (32 mA) seizure test; type: in vivo, mouse; details: mice i.p.
mice [3] = assay: Subcutaneous pentylenetetrazole (scPTZ) seizure test; type: in vivo, mouse; details: mice i.p.
mice [4] = details: mice i.p.; cited from earlier work
mice [5] = details: mice i.p.; cited from earlier work; remark: listed apart in the source
mice [6] = details: mice i.p.; cited from earlier work; remark: listed apart in the source
mice [7] = test system: mice; design: method as in PMID 32929733; details: mice i.p.; cited from earlier work

SMILES	PI (TD50/ED50), MES (mice [1])	PI (TD50/ED50), 6 Hz (32 mA) (mice [2])	PI (TD50/ED50), scPTZ (mice [3])	PI (TD50/ED50), MES (mice [4])	PI (TD50/ED50), 6 Hz (32 mA) (mice [5])	PI (TD50/ED50), scPTZ (mice [6])	PI (TD50/ED50), 6 Hz (44 mA) (mice [7])
CN(C)C1CC(=O)N([C@@H](C(=O)N2CCN(c3cccc(C(F)(F)F)c3)CC2)c2ccccc2)C1=O.Cl (stereo partly drawn) [(C1-R)-31, 3-Dimethylamino-1-((R)-oxo-1-phenyl-2-(4-(3-(trifluoromethyl)phenyl)-piperazin-1-yl)ethyl)pyrrolidine-2,5-dione hydrochloride]	1.6	1.9	1.5				
CN(C)C1CC(=O)N([C@@H](C(=O)N2CCN(c3cccc(OC(F)(F)F)c3)CC2)c2ccccc2)C1=O.Cl (stereo partly drawn) [(C1-R)-32, 3-Dimethylamino-1-((R)-2-oxo-1-phenyl-2-(4-(3-(trifluoromethoxy)phenyl)piperazin-1-yl)ethyl)pyrrolidine-2,5-dione hydrochloride]	2.7	2.5	1.6				
CNC1CC(=O)N(C(C(=O)N2CCN(c3cccc(C(F)(F)F)c3)CC2)c2ccccc2)C1=O.Cl (centres unmarked) [Compound 13, 3-(Methylamino)-1-(2-oxo-1-phenyl-2-(4-(3-(trifluoromethyl)phenyl)piperazin-1-yl)ethyl)pyrrolidine-2,5-dione hydrochloride]		1.7	1.9				
CN(C)C1CC(=O)N(C(C(=O)N2CCN(c3cccc(C(F)(F)F)c3)CC2)c2ccccc2)C1=O.Cl (centres unmarked) [Compound 14, 3-(Dimethylamino)-1-(2-oxo-1-phenyl-2-(4-(3-(trifluoromethyl)phenyl)-piperazin-1-yl)ethyl)pyrrolidine-2,5-dione hydrochloride]	3.4	5.4					
CCN(CC)C1CC(=O)N(C(C(=O)N2CCN(c3cccc(C(F)(F)F)c3)CC2)c2ccccc2)C1=O.Cl (centres unmarked) [Compound 15, 3-(Diethylamino)-1-(2-oxo-1-phenyl-2-(4-(3-(trifluoromethyl)phenyl)piperazin-1-yl)ethyl)pyrrolidine-2,5-dione hydrochloride]	3.2						
CN(C)C1CC(=O)N(C(C(=O)N2CCN(c3cccc(OC(F)(F)F)c3)CC2)c2ccccc2)C1=O.Cl (centres unmarked) [Compound 17, 3-Dimethylamino-1-(2-oxo-1-phenyl-2-(4-(3-(trifluoromethoxy)phenyl)piperazin-1-yl)ethyl)pyrrolidine-2,5-dione hydrochloride]	1.6	3.7	2.2				
CCC1(C)CC(=O)NC1=O (centres unmarked) [ETX, ethosuximide, reference compound]			2.3 (scPTZ)				
O=C([C@@H](c1ccccc1)N1C(=O)CCC1=O)N1CCN(c2cccc(C(F)(F)F)c2)CC1 [II]				13.0	12.0	8.5	
O=C(C(c1ccccc1)N1C(=O)CCC1=O)N1CCN(c2cccc(C(F)(F)F)c2)CC1 (centres unmarked) [I]				8.2	8.7	3.3	2.7
COC[C@@H](NC(C)=O)C(=O)NCc1ccccc1 [LCS, lacosamide, reference compound]	5.0	8.8					6.7
CCCC(CCC)C(=O)O [VPA, valproic acid, reference compound]	1.7	3.3	1.8				2.3
